Our source for the binding values is publication PMC4844679.

Amino acid sequences for entries named in this document (tags omitted). A change or cut given only in a name is not applied to a line headed by its entry.
UniProt P04913: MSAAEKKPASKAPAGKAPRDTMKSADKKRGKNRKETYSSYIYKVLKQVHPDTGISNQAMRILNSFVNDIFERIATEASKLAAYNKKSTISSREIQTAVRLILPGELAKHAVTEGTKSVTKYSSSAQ

Experiment [1] addresses T1, Rhp6-TAP (S. pombe) (S. pombe) (UniProt P23566).
T1 sequence: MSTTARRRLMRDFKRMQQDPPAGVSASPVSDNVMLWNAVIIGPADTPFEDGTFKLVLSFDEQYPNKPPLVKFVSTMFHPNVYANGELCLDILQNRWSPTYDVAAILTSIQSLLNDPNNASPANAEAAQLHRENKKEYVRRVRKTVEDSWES
Nature of the experiment: co-IP; co-IP of Rpa1-GFP with Rhp6-TAP; method as for Figure 3f (lysates of MMS-challenged cells treated with ethidium bromide for 10 min).

Experiment [2] deals with T2, Ddb1 (S. pombe), epitope-tagged, expressed from its genomic locus (S. pombe) (UniProt O13807).
T2 sequence: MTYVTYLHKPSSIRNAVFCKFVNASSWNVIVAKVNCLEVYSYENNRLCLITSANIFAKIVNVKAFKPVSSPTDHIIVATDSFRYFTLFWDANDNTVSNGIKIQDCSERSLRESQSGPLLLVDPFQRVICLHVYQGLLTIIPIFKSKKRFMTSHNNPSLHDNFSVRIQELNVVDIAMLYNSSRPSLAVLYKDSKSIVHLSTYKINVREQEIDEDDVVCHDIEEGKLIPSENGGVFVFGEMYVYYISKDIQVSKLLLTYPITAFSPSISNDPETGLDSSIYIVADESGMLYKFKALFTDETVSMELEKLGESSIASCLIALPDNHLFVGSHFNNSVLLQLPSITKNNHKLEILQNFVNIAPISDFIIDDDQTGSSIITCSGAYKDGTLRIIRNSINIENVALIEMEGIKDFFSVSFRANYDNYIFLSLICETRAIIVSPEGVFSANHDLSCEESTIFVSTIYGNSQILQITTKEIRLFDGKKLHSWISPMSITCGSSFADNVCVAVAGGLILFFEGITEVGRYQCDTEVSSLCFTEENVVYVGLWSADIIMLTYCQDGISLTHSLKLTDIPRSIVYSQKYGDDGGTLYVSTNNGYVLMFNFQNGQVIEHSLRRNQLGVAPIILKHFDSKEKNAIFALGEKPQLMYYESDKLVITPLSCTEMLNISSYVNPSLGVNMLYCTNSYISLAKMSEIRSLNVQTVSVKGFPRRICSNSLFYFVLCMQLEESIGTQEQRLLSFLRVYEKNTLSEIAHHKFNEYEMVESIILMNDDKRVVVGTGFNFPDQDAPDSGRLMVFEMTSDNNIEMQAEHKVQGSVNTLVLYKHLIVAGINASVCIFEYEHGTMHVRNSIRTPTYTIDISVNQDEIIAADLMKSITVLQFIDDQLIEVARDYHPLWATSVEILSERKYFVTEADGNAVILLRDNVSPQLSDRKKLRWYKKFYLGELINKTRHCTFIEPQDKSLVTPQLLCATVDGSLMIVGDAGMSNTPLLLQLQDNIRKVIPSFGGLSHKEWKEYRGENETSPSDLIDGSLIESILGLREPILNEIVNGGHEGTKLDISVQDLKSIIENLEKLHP
Nature of the experiment: co-IP; 10 ug of ethidium bromide added to pre-cleared S. pombe lysates, 10 min on ice, before immunoprecipitation with 5 ug of anti-Myc antibody (Supplementary Fig. 1e).

Experiment [3] concerns the target T2, Ddb1 (S. pombe), epitope-tagged, expressed from its genomic locus (S. pombe). Description: co-IP; S. pombe lysates in IP2 lysis buffer (100 mM NaCl, 10 mM Tris-HCl pH 7.5, 5 mM EDTA, 0.5% NP-40), anti-Myc antibody 2 h at 4 °C, Protein G DynaBeads overnight; tagged proteins from their genomic loci; untreated cells and cells after UV (500 J m^-2) or IR (80 Gy), which enhanced the interaction.

Experiment [4] concerns the target Flag-tagged histone H2B (K119 wild type), S. pombe (S. pombe) (UniProt P04913). Nature of the experiment: co-IP; lysates of MMS-challenged S. pombe cells, treated with ethidium bromide for 10 min, precipitated by anti-Flag antibody.

These are yes or no findings as the source states them, for the method shown. Binding seen in cells or lysates may run through a third protein. Some results given as binding are weak or reduced against the parent protein; the word gives no strength. Where a sequence is shown, tags or fusion partners need not be part of it.

B1: Rpa1-GFP (S. pombe) (protein, UniProt Q92372 1-609)
chain: MAERLSVGALRIINTSDASSFPPNPILQVLTVKELNSNPTSGAPKRYRVVLSDSINYAQSMLSTQLNHLVAENKLQKGAFVQLTQFTVNVMKERKILIVLGLNVLTELGVMDKIGNPAGLETVDALRQQQNEQNNASAPRTGISTSTNSFYGNNAAATAPAPPPMMKKPAAPNSLSTIIYPIEGLSPYQNKWTIRARVTNKSEVKHWHNQRGEGKLFSVNLLDESGEIRATGFNDQVDAFYDILQEGSVYYISRCRVNIAKKQYTNVQNEYELMFERDTEIRKAEDQTAVPVAKFSFVSLQEVGDVAKDAVIDVIGVLQNVGPVQQITSRATSRGFDKRDITIVDQTGYEMRVTLWGKTAIEFSVSEESILAFKGVKVNDFQGRSLSMLTSSTMSVDPDIQESHLLKGWYDGQGRGQEFAKHSVISSTLSTTGRSAERKNIAEVQAEHLGMSETPDYFSLKGTIVYIRKKNVSYPACPAADCNKKVFDQGGSWRCEKCNKEYDAPQYRYIITIAVGDHTGQLWLNVFDDVGKLIMHKTADELNDLQENDENAFMNCMAEACYMPYIFQCRAKQDNFKGEMRVRYTVMSINQMDWKEESKRLINFIESAQ
As to B1, the binding entry in experiment [1] was “binds”.

B2: Wdr70 (S. pombe), epitope-tagged, expressed from its genomic locus (protein, UniProt Q9UT73 1-576)
chain: MDGTNNTIPLQFGKQAQTYDINALIARFIRPKESFLINSVEKESESKLNSKSTTLQSSDSEDWDSEENEDDITDVGVPGSHEIMFPGHSKIVTTTTFDKNGSRFYTGSLDNTIHCWDLNGLSATNPHPFKIIDPTDTNADNVGRYPVSKLSCSTKNQILALYTHSQPILYDRDGSLIVRFSKGDQYIRNMYNTKGHIAEITDGCWQPDSSQIFLTTGYDSTARIWDVNRTKSQLEVFVHVPEGSHTGLSRIPVTSCAWNPAKPDNFATAVLDGSIQFWQKGSRTKRPVMKIKDAHLPQQGISCLSFSQDGNYLLSRGEDNALRVWDLRNSNKCVNERIDILTPKAGGNAIFSPTQKLILAGSTAVNSMKAPLFVLDAMTLDTKATLFFDSKSTVTASVSAVSWNEKINQVSLGSADGNAYVLFSPNESIRGVKDAAMRPPKSKHIDDDLSSTVHINSLSGSAGTSDFGLVEETTESASAYFLEARRRRNAVRKDPKLSRQPQVGRLLEENSVDDIPLATMLNEDPREALLKYADVAKSNPMFTKMYSETQPTPIYQGVTEGDISSEEGNPSKKQKR
As for B2, the binding entry in experiment [2] and in experiment [3] was “binds” throughout.

B3: EGFP-tagged Wdr70 (S. pombe), from plasmid Rep41-EGFP-Wdr70 (protein, UniProt Q9UT73 1-576)
chain: MDGTNNTIPLQFGKQAQTYDINALIARFIRPKESFLINSVEKESESKLNSKSTTLQSSDSEDWDSEENEDDITDVGVPGSHEIMFPGHSKIVTTTTFDKNGSRFYTGSLDNTIHCWDLNGLSATNPHPFKIIDPTDTNADNVGRYPVSKLSCSTKNQILALYTHSQPILYDRDGSLIVRFSKGDQYIRNMYNTKGHIAEITDGCWQPDSSQIFLTTGYDSTARIWDVNRTKSQLEVFVHVPEGSHTGLSRIPVTSCAWNPAKPDNFATAVLDGSIQFWQKGSRTKRPVMKIKDAHLPQQGISCLSFSQDGNYLLSRGEDNALRVWDLRNSNKCVNERIDILTPKAGGNAIFSPTQKLILAGSTAVNSMKAPLFVLDAMTLDTKATLFFDSKSTVTASVSAVSWNEKINQVSLGSADGNAYVLFSPNESIRGVKDAAMRPPKSKHIDDDLSSTVHINSLSGSAGTSDFGLVEETTESASAYFLEARRRRNAVRKDPKLSRQPQVGRLLEENSVDDIPLATMLNEDPREALLKYADVAKSNPMFTKMYSETQPTPIYQGVTEGDISSEEGNPSKKQKR
As to B3, the binding result in experiment [4] is “binds”.
